Source: patent publication US10555989B2, “Treatment of learning disabilities and other neurological disorders with SK channel inhibitor(s)” (priority 2015, dated 2020)

Tested on: KCNN2
Settings: EtOH- vs PBS-exposed mice, P30; P=0.006

CCO [EtOH, ethanol]
number of KCNN2+ cells in layers II/III in M1 cortex (FIG. 3B): More
